# Measurements as given in PubChem BioAssay (NCATS).
# This is one part of the list. These are further read-outs of the screen, such as a control signal, another cell line or another target. No call is given for them. The list favours compounds with an active or inconclusive main result.
# Test: qHTS for identification of novel therapeutic agents for treatment of microphthalmiaassociated transcription factor (MiT) renal cell carcinoma (RCC) (AID 1963991)
# Conditions: TFE3-RCC viability, CellTiter-Glo, 48 h; measured here: UOK145 Z-AUC; stronger effect = lower value
# How it was run: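 Three TFE3-fusion RCC lines (UOK109, UOK124, UOK145), 500 cells/well in complete medium, were treated with MIPE 4.0 compounds for 48 hours at 37 C. Viability was by CellTiter-Glo luminescence, normalized to DMSO (100%) and empty wells (0%); curves fitted over 11 concentrations.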
row,Structure (SMILES),z-score
1,CC(=O)c1c(C)c2cnc(Nc3ccc(N4CCNCC4)cn3)nc2n(C2CCCC2)c1=O,0.192
2,CC(C)=CCCC(C)=CCCC(C)=CCSc1ccccc1C(=O)O,0.258
3,CC1(O)CC(c2nc(-c3ccc4ccc(-c5ccccc5)nc4c3)c3c(N)nccn23)C1 (centres undefined),0.0683
4,CC(=O)N1CCN(c2ccc(OCc3nn(C)c(C)c3-c3cccc4c(CCCOc5cc(C)c(Cl)c(C)c5)c(C(=O)O)n(Cc5cccnc5)c34)cc2)CC1,-0.728
5,CN(C)CCOc1ccc(-c2nc(-c3ccc4c(c3)CCC4=NO)c(-c3ccncc3)[nH]2)cc1,0.465
6,CC1CCN(c2cc(N3CCN(C)CC3)ccc2NC(=O)c2cc(C#N)c[nH]2)CC1,0.209
7,CC(C)c1c(C(=O)Nc2ccccc2)c(-c2ccccc2)c(-c2ccc(F)cc2)n1CC[C@H](O)C[C@@H](O)CC(=O)O,0.147
8,C=Cc1c(C)c2cc3nc(cc4[nH]c(cc5nc(cc1[nH]2)C(C)=C5CCC(=O)O)c(CCC(=O)OC)c4C)[C@@]1(C)C3=CC=C(C(=O)OC)[C@H]1C(=O)OC,-1.83
9,O=S(=O)(NCCNCC=Cc1ccc(Br)cc1)c1cccc2cnccc12,-0.311
10,CNC(=O)c1cc(COc2nnc(Nc3ccc(Cl)cc3)c3ccoc23)ccn1,0.647
11,CC[C@H](Nc1ncnc2nc[nH]c12)c1nc2cccc(F)c2c(=O)n1-c1ccccc1,0.276
12,C[C@@]1(c2cc(-c3cncnc3)c(F)cc2F)CCSC(N)=N1,0.628
13,CCN(CC)CCCCNc1nc2cc(Cl)c(Cl)cc2nc1-c1ccc(-c2cccs2)s1,0.101
14,Nc1ccn([C@@H]2O[C@H](CO)[C@@H](O)[C@H]2O)c(=O)n1,-2.07
15,COc1cc(C[C@@H](CO)[C@H](CO)Cc2ccc(O)c(OC)c2)ccc1O,-0.299
16,CN(C)CC=CC(=O)Nc1cc2c(Nc3ccc(F)c(Cl)c3)ncnc2cc1O[C@H]1CCOC1,-0.591
17,CNC(=O)c1c(-c2ccc(F)cc2)oc2cc(N(CCO)S(C)(=O)=O)c(C3CC3)cc12,-0.337
18,O=c1[nH]c(=O)n([C@H]2C[C@@H](O)[C@@H](CO)O2)cc1C(F)(F)F,0.135
19,CC(C)(N)C(=O)N[C@H](COCc1ccccc1)C(=O)N1CCC2(CC1)CN(S(C)(=O)=O)c1ccccc12,0.48
20,N#CC(c1ccnc(NCCc2cccnc2)n1)c1nc2ccccc2s1 (centres undefined),-0.539

# Part of the list above, as tab-separated lines:
row	Structure (SMILES)	z-score
2	CC(C)=CCCC(C)=CCCC(C)=CCSc1ccccc1C(=O)O	0.258
3	CC1(O)CC(c2nc(-c3ccc4ccc(-c5ccccc5)nc4c3)c3c(N)nccn23)C1 (centres undefined)	0.0683
4	CC(=O)N1CCN(c2ccc(OCc3nn(C)c(C)c3-c3cccc4c(CCCOc5cc(C)c(Cl)c(C)c5)c(C(=O)O)n(Cc5cccnc5)c34)cc2)CC1	-0.728
5	CN(C)CCOc1ccc(-c2nc(-c3ccc4c(c3)CCC4=NO)c(-c3ccncc3)[nH]2)cc1	0.465
6	CC1CCN(c2cc(N3CCN(C)CC3)ccc2NC(=O)c2cc(C#N)c[nH]2)CC1	0.209
7	CC(C)c1c(C(=O)Nc2ccccc2)c(-c2ccccc2)c(-c2ccc(F)cc2)n1CC[C@H](O)C[C@@H](O)CC(=O)O	0.147
8	C=Cc1c(C)c2cc3nc(cc4[nH]c(cc5nc(cc1[nH]2)C(C)=C5CCC(=O)O)c(CCC(=O)OC)c4C)[C@@]1(C)C3=CC=C(C(=O)OC)[C@H]1C(=O)OC	-1.83
9	O=S(=O)(NCCNCC=Cc1ccc(Br)cc1)c1cccc2cnccc12	-0.311
10	CNC(=O)c1cc(COc2nnc(Nc3ccc(Cl)cc3)c3ccoc23)ccn1	0.647

# Remaining list, next part:

row,Structure (SMILES),z-score
1,COc1ccc(COc2cc3oc(=O)c4cc(C(C)O)ccc4c3cc2OC)cc1 (centres undefined),0.908
2,O=C1NC(=O)C(=Cc2ccc(-c3ccc(F)cc3O)o2)S1,0.329
3,CCOC(=O)N1CCN([N+]([O-])=NOc2cc(ON=[N+]([O-])N3CCN(C(=O)OCC)CC3)c([N+](=O)[O-])cc2[N+](=O)[O-])CC1,0.562
4,C[C@@H]1[C@H](O)[C@@H](C)C=CC=CC=CC=CC=CC=CC=C[C@H](O[C@@H]2O[C@H](C)[C@H](O)[C@H](N)[C@@H]2O)C[C@@H]2O[C@](O)(C[C@@H](O)C[C@@H](O)[C@H](O)CC[C@@H](O)C[C@@H](O)CC(=O)O[C@H]1C)C[C@H](O)[C@@H]2C(=O)O,-1.19
5,CN1CCCN(C(=O)c2cccc(-c3ccc(C=C4C(=O)Nc5ccc(Cl)cc54)o3)c2)CC1,0.329
6,CCOC(=O)N1CCN([N+]([O-])=NOc2ccc([N+](=O)[O-])cc2C#N)CC1,1.61
7,CN(C)S(=O)(=O)c1ccc2c(c1)C(=Cc1cc3c([nH]1)CCCC3)C(=O)N2,0.605
8,C[C@@H]1C[C@H]2[C@@H]3CCC4=CC(=O)C=C[C@]4(C)[C@@]3(Cl)[C@@H](O)C[C@]2(C)[C@@]1(OC(=O)c1ccco1)C(=O)CCl,0.119
9,CC(C=CC=C(C)C=CC1=C(C)CCCC1(C)C)=CC=CC=C(C)C=CC=C(C)C=CC1=C(C)CCCC1(C)C,0.563
10,Cn1cnc(=N)c2[nH]cnc21,-0.48
11,CCn1c(-c2nonc2N)nc2c(C#CC(C)(C)O)ncc(OC[C@H]3CCCNC3)c21,-0.344
12,O=C(C=Cc1cccc(S(=O)(=O)Nc2ccccc2)c1)NO,-0.852
13,CC(=O)ON=C1C(c2c(O)[nH]c3cc(Br)ccc23)=Nc2ccccc21,0.0432
14,CS(=O)(=O)Oc1ccc2c(NC(N)=O)c(C(=O)c3ccc(Cl)cc3Cl)oc2c1,0.131
15,Nc1ncn([C@@H]2O[C@H](CO)[C@@H](O)[C@@H]2O)c(=O)n1,-0.453
16,CN(C)CC(C)(C)CNc1nn2c(-c3ccccc3)nnc2cc1C1CCC1,-0.156
17,COc1cc([C@@H]2c3cc4c(cc3[C@@H](O[C@@H]3O[C@@H]5CO[C@@H](c6cccs6)O[C@@H]5[C@H](O)[C@@H]3O)[C@H]3COC(=O)[C@H]23)OCO4)cc(OC)c1O,-1.83
18,C[C@]1(CO)CN(c2cc(C(=O)Nc3ccc4c(c3)-c3c(c(C(N)=O)nn3-c3ccc(F)cc3)CC4)c(Cl)cn2)C[C@@]1(C)CO,-0.78
19,O=C(O)c1ccc(-c2cc3cccnc3c(-c3ccc4nonc4c3)n2)cc1,0.244
